Assay results: the supplement of paper PMC12595434, “Development of retinoid nuclear receptor pathway antagonists through targeting aldehyde dehydrogenase 1A3” (iScience, 2025)
The list shows a part of the results. The data scatter; read single values as rough.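 Tm was set to 64 °C where no melting was found, and many curves are irregular.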

Chains of the proteins cited; added tags and fusions are not shown. Lines headed by an entry give the natural chain unless they say otherwise; changes in a name come on top.
UniProt Q99848: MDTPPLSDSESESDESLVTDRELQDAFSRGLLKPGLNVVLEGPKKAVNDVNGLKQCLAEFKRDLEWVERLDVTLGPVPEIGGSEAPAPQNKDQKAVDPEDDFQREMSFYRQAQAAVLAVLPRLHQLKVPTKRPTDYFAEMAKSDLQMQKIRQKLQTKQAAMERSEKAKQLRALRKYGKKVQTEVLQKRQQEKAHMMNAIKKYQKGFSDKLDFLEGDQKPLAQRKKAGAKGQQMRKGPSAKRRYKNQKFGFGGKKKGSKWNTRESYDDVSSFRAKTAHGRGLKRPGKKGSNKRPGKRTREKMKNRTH
UniProt Q9BRT6: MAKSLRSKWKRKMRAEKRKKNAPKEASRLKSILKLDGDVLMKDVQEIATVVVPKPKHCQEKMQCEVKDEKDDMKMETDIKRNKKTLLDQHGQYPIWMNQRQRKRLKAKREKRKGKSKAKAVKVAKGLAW
UniProt Q9BRJ7: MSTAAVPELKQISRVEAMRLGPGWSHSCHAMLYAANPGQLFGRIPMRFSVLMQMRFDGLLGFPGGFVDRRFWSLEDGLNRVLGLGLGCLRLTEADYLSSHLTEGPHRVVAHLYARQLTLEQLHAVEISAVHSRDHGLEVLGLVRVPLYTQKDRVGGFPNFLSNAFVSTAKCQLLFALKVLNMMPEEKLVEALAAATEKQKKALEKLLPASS
UniProt Q9BPY3: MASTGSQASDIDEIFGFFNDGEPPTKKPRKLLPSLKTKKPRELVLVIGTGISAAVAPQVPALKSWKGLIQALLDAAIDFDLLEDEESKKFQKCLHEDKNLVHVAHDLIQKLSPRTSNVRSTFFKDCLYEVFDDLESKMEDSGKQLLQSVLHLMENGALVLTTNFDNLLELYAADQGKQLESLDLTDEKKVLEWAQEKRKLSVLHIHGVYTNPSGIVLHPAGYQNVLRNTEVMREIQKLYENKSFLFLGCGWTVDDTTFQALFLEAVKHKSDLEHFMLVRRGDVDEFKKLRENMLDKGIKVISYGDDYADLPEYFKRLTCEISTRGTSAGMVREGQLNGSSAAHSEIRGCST
UniProt Q99547: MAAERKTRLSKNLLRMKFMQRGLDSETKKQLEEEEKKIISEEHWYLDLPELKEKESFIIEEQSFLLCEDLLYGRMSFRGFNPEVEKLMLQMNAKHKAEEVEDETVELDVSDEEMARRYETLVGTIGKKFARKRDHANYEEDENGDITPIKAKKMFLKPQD
UniProt Q9BXB4: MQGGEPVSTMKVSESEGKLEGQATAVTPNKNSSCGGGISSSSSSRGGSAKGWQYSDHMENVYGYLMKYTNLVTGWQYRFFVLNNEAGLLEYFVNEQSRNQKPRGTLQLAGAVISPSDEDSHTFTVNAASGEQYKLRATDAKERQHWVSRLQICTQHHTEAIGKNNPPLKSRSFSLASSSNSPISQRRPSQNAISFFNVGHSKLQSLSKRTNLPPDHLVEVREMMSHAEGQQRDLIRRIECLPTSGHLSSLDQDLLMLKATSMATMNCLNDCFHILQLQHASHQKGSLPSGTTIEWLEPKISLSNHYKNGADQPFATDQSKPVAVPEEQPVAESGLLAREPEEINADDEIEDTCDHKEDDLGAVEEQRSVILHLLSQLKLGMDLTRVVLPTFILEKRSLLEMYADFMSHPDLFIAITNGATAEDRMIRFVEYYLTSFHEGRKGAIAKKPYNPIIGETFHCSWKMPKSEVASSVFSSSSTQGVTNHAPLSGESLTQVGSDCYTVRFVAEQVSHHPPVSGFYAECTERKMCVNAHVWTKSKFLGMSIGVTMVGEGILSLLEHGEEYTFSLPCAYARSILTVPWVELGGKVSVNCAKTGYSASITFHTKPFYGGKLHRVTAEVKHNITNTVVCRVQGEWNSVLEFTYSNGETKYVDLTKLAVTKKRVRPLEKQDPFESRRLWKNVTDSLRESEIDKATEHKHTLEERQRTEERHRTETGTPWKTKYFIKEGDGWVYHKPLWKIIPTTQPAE
UniProt Q9BXW7: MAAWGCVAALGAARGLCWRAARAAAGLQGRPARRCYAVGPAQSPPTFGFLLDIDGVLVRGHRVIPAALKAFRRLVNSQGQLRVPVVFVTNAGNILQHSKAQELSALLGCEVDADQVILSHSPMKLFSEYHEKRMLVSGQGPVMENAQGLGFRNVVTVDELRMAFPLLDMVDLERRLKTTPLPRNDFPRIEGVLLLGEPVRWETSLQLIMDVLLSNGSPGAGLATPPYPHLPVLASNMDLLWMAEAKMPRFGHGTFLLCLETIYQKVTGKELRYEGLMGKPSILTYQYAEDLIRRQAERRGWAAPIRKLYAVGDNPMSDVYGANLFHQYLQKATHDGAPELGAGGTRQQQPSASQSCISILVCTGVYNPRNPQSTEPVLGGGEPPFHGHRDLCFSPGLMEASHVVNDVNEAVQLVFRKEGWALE
UniProt Q99633: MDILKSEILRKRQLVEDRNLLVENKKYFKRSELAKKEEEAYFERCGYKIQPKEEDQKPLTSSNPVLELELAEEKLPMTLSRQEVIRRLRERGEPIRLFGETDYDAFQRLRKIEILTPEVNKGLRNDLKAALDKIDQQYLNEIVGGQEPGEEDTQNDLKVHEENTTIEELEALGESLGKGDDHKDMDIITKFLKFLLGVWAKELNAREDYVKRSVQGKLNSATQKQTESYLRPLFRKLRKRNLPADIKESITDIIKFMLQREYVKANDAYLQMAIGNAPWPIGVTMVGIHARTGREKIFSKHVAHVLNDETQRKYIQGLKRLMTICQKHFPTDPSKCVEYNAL
UniProt Q9BTT4: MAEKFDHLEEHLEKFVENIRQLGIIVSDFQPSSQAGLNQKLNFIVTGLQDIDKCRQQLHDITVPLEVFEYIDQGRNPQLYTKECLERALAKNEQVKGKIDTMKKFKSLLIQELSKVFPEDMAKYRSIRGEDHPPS
UniProt Q9BR76, whole entry: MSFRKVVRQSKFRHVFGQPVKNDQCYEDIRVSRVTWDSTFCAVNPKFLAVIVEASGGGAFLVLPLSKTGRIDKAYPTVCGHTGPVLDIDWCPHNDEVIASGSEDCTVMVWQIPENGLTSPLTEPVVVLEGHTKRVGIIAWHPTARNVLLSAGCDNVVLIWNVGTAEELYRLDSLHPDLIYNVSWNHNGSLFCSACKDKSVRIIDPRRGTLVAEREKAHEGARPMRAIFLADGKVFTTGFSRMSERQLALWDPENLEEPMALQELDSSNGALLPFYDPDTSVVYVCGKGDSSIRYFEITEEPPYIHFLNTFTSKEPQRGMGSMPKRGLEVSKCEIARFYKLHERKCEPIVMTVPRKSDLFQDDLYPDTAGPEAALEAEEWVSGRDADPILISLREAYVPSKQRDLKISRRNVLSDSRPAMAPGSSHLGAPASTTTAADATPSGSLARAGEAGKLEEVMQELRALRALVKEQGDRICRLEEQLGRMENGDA
UniProt Q9BSC4: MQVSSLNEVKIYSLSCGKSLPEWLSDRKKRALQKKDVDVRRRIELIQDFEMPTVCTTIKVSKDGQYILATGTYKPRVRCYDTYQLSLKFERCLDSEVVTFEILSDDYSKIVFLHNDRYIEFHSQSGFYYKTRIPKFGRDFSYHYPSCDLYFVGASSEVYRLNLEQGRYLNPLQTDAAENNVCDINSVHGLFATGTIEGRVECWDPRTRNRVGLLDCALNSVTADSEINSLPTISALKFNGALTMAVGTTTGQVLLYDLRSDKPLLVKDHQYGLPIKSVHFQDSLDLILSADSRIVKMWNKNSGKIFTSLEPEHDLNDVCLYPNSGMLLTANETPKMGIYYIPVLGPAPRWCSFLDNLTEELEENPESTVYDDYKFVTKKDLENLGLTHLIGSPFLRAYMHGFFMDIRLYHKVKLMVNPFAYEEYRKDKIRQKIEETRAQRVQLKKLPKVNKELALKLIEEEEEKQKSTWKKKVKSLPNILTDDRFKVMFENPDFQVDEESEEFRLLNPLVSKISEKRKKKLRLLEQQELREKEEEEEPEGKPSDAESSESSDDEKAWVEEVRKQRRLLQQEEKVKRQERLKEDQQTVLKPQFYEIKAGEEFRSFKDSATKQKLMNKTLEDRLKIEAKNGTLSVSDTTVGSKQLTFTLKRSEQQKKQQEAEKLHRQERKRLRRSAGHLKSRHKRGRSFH
UniProt Q99757: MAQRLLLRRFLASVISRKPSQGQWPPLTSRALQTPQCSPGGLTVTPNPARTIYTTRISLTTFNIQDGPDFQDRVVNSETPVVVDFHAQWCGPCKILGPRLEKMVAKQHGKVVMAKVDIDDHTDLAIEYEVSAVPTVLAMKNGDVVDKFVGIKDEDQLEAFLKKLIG
UniProt Q9BRZ2: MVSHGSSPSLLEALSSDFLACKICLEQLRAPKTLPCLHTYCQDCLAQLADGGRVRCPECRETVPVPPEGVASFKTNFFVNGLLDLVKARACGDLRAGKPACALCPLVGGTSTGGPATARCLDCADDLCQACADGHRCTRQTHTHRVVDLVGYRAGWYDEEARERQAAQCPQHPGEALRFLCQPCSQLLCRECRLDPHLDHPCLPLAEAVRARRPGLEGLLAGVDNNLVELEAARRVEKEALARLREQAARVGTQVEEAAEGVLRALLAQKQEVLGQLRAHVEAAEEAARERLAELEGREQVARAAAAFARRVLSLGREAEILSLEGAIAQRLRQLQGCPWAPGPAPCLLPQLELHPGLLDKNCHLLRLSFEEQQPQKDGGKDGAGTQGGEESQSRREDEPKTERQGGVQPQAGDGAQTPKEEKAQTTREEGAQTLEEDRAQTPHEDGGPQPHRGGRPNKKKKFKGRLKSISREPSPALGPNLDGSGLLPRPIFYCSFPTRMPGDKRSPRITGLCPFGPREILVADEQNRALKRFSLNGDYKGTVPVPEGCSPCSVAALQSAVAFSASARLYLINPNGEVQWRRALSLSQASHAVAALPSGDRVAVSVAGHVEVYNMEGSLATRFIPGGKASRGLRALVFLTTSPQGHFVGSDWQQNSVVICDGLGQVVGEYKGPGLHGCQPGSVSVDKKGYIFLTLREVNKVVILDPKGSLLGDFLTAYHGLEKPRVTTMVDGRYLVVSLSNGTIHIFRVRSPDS
UniProt Q9BSV6: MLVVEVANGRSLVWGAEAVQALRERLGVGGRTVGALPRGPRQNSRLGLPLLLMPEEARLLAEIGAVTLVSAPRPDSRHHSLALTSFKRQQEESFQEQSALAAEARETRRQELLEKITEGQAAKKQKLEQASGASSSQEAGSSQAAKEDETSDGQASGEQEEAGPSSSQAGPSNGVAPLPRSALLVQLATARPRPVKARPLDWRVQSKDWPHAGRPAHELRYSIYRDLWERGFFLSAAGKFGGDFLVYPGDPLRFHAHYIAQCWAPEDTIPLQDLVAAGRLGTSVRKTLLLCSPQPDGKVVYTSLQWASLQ
UniProt Q9BW83: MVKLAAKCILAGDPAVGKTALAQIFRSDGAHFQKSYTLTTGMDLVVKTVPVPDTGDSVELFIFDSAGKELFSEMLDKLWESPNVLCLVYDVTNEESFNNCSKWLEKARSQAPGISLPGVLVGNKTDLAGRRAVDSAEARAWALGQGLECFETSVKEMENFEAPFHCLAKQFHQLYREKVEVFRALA
UniProt Q99674: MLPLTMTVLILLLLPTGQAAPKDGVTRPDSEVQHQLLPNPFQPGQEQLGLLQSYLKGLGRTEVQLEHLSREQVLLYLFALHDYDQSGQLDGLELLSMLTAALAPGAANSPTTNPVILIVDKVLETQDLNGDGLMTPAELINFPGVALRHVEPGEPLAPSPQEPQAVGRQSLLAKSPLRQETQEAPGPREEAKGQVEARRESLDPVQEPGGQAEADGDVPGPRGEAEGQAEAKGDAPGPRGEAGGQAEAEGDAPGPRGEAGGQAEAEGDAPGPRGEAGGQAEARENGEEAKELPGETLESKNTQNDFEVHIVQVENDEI
UniProt Q99986: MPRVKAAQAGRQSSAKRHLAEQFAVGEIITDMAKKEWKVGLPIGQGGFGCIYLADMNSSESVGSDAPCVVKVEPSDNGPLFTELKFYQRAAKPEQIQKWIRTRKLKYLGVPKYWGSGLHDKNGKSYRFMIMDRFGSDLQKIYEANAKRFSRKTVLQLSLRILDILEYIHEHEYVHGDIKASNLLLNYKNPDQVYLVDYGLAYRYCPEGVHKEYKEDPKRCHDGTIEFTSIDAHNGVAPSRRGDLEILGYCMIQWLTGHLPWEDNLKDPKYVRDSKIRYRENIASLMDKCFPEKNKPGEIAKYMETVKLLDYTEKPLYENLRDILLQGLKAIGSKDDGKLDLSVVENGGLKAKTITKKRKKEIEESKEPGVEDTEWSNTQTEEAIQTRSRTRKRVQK
UniProt Q9BWM7: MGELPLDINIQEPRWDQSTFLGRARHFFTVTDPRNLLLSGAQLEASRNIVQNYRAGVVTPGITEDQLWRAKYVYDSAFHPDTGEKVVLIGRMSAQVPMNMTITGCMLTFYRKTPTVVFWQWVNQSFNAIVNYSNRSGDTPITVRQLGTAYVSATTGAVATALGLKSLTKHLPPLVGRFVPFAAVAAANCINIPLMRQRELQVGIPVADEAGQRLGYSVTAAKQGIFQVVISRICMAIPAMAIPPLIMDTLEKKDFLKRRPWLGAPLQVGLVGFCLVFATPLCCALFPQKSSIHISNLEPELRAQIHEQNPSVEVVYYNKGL
UniProt Q9BVJ7: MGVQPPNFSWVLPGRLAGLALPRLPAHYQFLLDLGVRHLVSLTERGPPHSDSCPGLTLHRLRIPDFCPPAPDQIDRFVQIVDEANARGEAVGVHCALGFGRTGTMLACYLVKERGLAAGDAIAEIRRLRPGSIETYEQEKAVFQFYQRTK

Compound: CCc1cnccc1C(=O)Nc1cc2c(cc1F)NC(=O)CC2
Test: melting temperature shift (DMSO Tm minus MBE1-treated Tm) in cellular thermal proteome profiling; higher = less thermal stabilization by MBE1 (negative = stabilized by MBE1)
Settings: A375

Target | melting temperature shift (MBE1 concentration: 100 nM) | melting temperature shift (MBE1 concentration: 1 uM)
C2ORF49 (UniProt Q9BVC5) | 0.22 °C | -0.495 °C
UniProt Q9BV19 | -4.95 °C | 0.202 °C
FANCD2 (UniProt Q9BXW9) | -0.698 °C | -0.173 °C
EBNA1BP2 (UniProt Q99848) | -2.3 °C | -1.53 °C
UniProt Q9BUA3 | -2.69 °C | 0.44 °C
RPP25 (UniProt Q9BUL9) | -1.95 °C | 0.189 °C
LLPH (UniProt Q9BRT6) | -1.86 °C | -2.08 °C
POLR3C (UniProt Q9BUI4) | -0.672 °C | -0.623 °C
UniProt Q9BRJ7 | -0.572 °C | 0.763 °C
WRAP53 (UniProt Q9BUR4) | -1.11 °C | -0.00671 °C
RBM4 (UniProt Q9BWF3) | -0.16 °C | -1.47 °C
ESYT1 (UniProt Q9BSJ8) | -0.0188 °C | -0.216 °C
UniProt Q99719 | -0.563 °C | -0.181 °C
FAM118B (UniProt Q9BPY3) | -0.32 °C | 0.235 °C
MPHOSPH6 (UniProt Q99547) | 0.929 °C | -0.11 °C
NUP85 (UniProt Q9BW27) | 1.28 °C | 0.586 °C
NIPSNAP1 (UniProt Q9BPW8) | -0.449 °C | 0.114 °C
UniProt Q9BS18 | -6.16 °C | -2.27 °C
TRMT61B (UniProt Q9BVS5) | -3.17 °C | -1.88 °C
KXD1 (UniProt Q9BQD3) | -1.11 °C | 1.14 °C

Individual results from the entries so far.
Value of UniProt Q99719 under melting temperature shift (MBE1 concentration: 100 nM): -0.563 °C
Value of TRMT61B (UniProt Q9BVS5) under melting temperature shift (MBE1 concentration: 100 nM): -3.17 °C
Value of UniProt Q9BS18 under melting temperature shift (MBE1 concentration: 100 nM): -6.16 °C
Value of NIPSNAP1 (UniProt Q9BPW8) under melting temperature shift (MBE1 concentration: 1 uM): 0.114 °C
Value of POLR3C (UniProt Q9BUI4) under melting temperature shift (MBE1 concentration: 100 nM): -0.672 °C

Remaining list, next part

Target | melting temperature shift (MBE1 concentration: 100 nM) | melting temperature shift (MBE1 concentration: 1 uM)
THTPA (UniProt Q9BU02) | -0.244 °C | 0.604 °C
TIMM21 (UniProt Q9BVV7) | -0.107 °C | 9.79 °C
KIFC3 (UniProt Q9BVG8) | -1.68 °C | -3.31 °C
ELAC2 (UniProt Q9BQ52) | -2.43 °C | 1.2 °C
MRI1 (UniProt Q9BV20) | -0.61 °C | -0.275 °C
OSBPL11 (UniProt Q9BXB4) | -0.287 °C | -0.311 °C
CECR5 (UniProt Q9BXW7) | 0.175 °C | -0.47 °C
PRPF18 (UniProt Q99633) | -1.14 °C | -0.146 °C
UniProt Q9BTT4 | -2.37 °C | 1.43 °C
DNAJC2 (UniProt Q99543) | -0.677 °C | -0.898 °C
PHF23 (UniProt Q9BUL5) | -1.24 °C | -1.33 °C
REPIN1 (UniProt Q9BWE0) | -0.695 °C | 0.147 °C
UniProt Q9BUG6 | -2.49 °C | 0.722 °C
NUP88 (UniProt Q99567) | -0.226 °C | -0.226 °C
NTMT1 (UniProt Q9BV86) | -0.122 °C | -0.0855 °C
CORO1B (UniProt Q9BR76) | 0.44 °C | 0.446 °C
UniProt Q9BSC4 | -0.0641 °C | -0.0128 °C
TXN2 (UniProt Q99757) | -0.268 °C | 1.26 °C
CMSS1 (UniProt Q9BQ75) | 0.134 °C | 0.318 °C
HAUS7 (UniProt Q99871) | -0.812 °C | -0.423 °C

Target | melting temperature shift (MBE1 concentration: 100 nM) | melting temperature shift (MBE1 concentration: 1 uM)
C17ORF62 (UniProt Q9BQA9) | -0.893 °C | -0.727 °C
DPCD (UniProt Q9BVM2) | -0.367 °C | -0.442 °C
TRIM56 (UniProt Q9BRZ2) | 0.444 °C | -0.0366 °C
UniProt Q9BY12 | 2.36 °C | 1.71 °C
TSEN34 (UniProt Q9BSV6) | -1.52 °C | 0.00641 °C
UniProt Q9BPX7 | -1.25 °C | -1.02 °C
NAP1L4 (UniProt Q99733) | -0.637 °C | -0.163 °C
SPATA5L1 (UniProt Q9BVQ7) | 0.0469 °C | 0.778 °C
IFT27 (UniProt Q9BW83) | -0.845 °C | -0.986 °C
UniProt Q9BVA1 | -1.06 °C | 0.134 °C
UniProt Q99674 | 0.898 °C | -0.83 °C
DDX50 (UniProt Q9BQ39) | -0.0282 °C | 0.16 °C
VRK1 (UniProt Q99986) | -0.754 °C | 0.00641 °C
FAM195A (UniProt Q9BUT9) | 0.33 °C | 2.16 °C
SFXN3 (UniProt Q9BWM7) | -0.335 °C | -0.496 °C
EIF3C (UniProt Q99613) | -0.522 °C | -0.358 °C
NAA15 (UniProt Q9BXJ9) | -0.154 °C | 0.101 °C
DUSP23 (UniProt Q9BVJ7) | -0.107 °C | 0.772 °C
